The target of this test is hypo-IL-18 (IL-18 tethered to IL-18BP by a flexible linker with TEV site, 6xHis) (human). Nature of the test: BLI. A general note: BLI is a label-free optical method that tracks binding on a fibre tip over time.

Results are given in words; binding and its absence hold for the method and conditions named. Some binding calls cover weakened binding; strength is not graded here.

B1: SA07a (antibody, human IgG1, V domains shown)
VH: EVQLQQSGPELVKPGASVKISCKASGYTFTDYYMNWVKQSHGKSLEWIGDINPNNGGTSYNQKFKGKATLTVDKSSNTAYMELRSLTSEDSAVYYCAREGVYSNYGGYFDYWGQGTTLTVSS
VL: QIVLTQSPALMSASPGEKVTMTCSASSSVSYMYWYQQKPRSSPKPWIYLTSNLASGVPARFSGSGSGTSYSLTISSMEAEDAATYYCQQWSSNPPTFGSGTKLEIK
Regarding B1, the binding result is given as “binds”.

Source of the values: patent US20250368745A1.
